Experimental data from patent US6790644B2, “1,3-dicarbonyl-dioxygenase—a new c-c-bond cleaving enzyme” (Biocatalytics, Inc., priority 2001, dated 2004).
At least one compound was matched to its structure with a doubt left.

By UniProt entry, the sequences of proteins in these tests, tags left out. Where a name states a change or a piece, a line headed by the entry shows the natural chain unless it says otherwise.
UniProt Q8GNT2: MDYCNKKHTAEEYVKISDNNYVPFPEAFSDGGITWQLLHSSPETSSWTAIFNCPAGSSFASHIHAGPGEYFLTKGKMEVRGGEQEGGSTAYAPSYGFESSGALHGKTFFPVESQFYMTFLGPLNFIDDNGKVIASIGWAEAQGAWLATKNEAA

Target: 1,3-dicarbonyl-dioxygenase (Acinetobacter johnsonii, UniProt Q8GNT2)
Assay: Determination of enzyme-activity and stability versus pH and additives
Type: physicochemical
Settings: glycerol 10%, glucose 12.5%, ascorbate 1 mM, bovine serum albumin 1-20 mg/mL, dithiothreitol 1 mM, mercaptoethanol 1 mM
Experimental: Activity measurements were performed with the oxygen-electrode, with KH2PO4-buffers adjusted to various pH-values [5.0-9.0]. For stability measurements, the enzyme was diluted ten-fold and incubated at various pH-values [5.0-9.0]. The activity was measured periodically with the UV-activity-assay.

O=C1O[C@H]([C@@H](O)CO)C(O)=C1O [ascorbate]
effect of potential stabilizing agent on enzyme stability: did not enhance stability
